PubChem BioAssay AID1259424, University of Nebraska Medical Center, 2018

Purpose: 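Find knockdowns that reproduce the expression shifts seen after KSR1 loss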 (primary screen)
Cell system: human HCT116 colon cancer cells
Knock-down reagent: siRNA pool against human genes, 50 nM
Detection: 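Log2 levels of six mRNAs (branched-DNA multiplex), adjusted by two reference genes and the non-targeting median, then scored against the average KSR1 knockdown pattern as Pearson r and euclidean distance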
Scale: mean correlation with KSR1 profile: higher = expression change more like KSR1 knockdown
Shown is an unselected part of about 14,000 reagents. 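Higher correlation or smaller distance means closer resemblance to KSR1 loss; control wells, including KSR1 knockdowns, recur on many plates.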 Further read-outs or replicates are left out here. Reagent sequences are not shown. Not given: the time to read-out.

{"Gene": "FBLN2 (fibulin 2)", "mean correlation with KSR1 profile": 0.222}
{"Gene": "CRAMP1 (cramped chromatin regulator 1)", "mean correlation with KSR1 profile": -0.481}
{"Gene": "CACNA1A (calcium voltage-gated channel subunit alpha1 A)", "mean correlation with KSR1 profile": -0.567}
{"Gene": "CST7 (cystatin F)", "mean correlation with KSR1 profile": -0.559}
{"Gene": "HACL1 (2-hydroxyacyl-CoA lyase 1)", "mean correlation with KSR1 profile": -0.0695}
{"Gene": "EEF1D (eukaryotic translation elongation factor 1 delta)", "mean correlation with KSR1 profile": -0.213}
{"Gene": "CD40 (CD40 molecule)", "mean correlation with KSR1 profile": 0.738}
{"Gene": "TOR1AIP1 (torsin 1A interacting protein 1)", "mean correlation with KSR1 profile": 0.703}
{"Gene": "CDCA7 (cell division cycle associated 7)", "mean correlation with KSR1 profile": 0.313}
{"Gene": "LTBP4 (latent transforming growth factor beta binding protein 4)", "mean correlation with KSR1 profile": 0.53}
{"Gene": "PDE6H (phosphodiesterase 6H)", "mean correlation with KSR1 profile": -0.518}
{"Gene": "TFEC (transcription factor EC)", "mean correlation with KSR1 profile": 0.128}
{"Gene": "ABCB6 (ATP binding cassette subfamily B member 6 (LAN blood group))", "mean correlation with KSR1 profile": -0.136}
{"Gene": "COA7 (cytochrome c oxidase assembly factor 7)", "mean correlation with KSR1 profile": 0.568}
{"Gene": "MCC (MCC regulator of Wnt signaling pathway)", "mean correlation with KSR1 profile": -0.476}
{"Gene": "CDH26 (cadherin 26)", "mean correlation with KSR1 profile": -0.323}
{"Gene": "CKMT1B (creatine kinase, mitochondrial 1B)", "mean correlation with KSR1 profile": 0.0469}
{"Gene": "DNAJC28 (DnaJ heat shock protein family (Hsp40) member C28)", "mean correlation with KSR1 profile": -0.278}
{"Gene": "INHBC (inhibin subunit beta C)", "mean correlation with KSR1 profile": -0.262}
{"Gene": "DGLUCY (D-glutamate cyclase)", "mean correlation with KSR1 profile": 0.0667}
{"Gene": "ITPRID2 (ITPR interacting domain containing 2)", "mean correlation with KSR1 profile": -0.468}
{"Gene": "SIGLEC7 (sialic acid binding Ig like lectin 7)", "mean correlation with KSR1 profile": -0.199}
{"Gene": "CRX (cone-rod homeobox)", "mean correlation with KSR1 profile": 0.0465}
{"Gene": "GPR87 (G protein-coupled receptor 87)", "mean correlation with KSR1 profile": 0.274}
{"Gene": "MYH14 (myosin heavy chain 14)", "mean correlation with KSR1 profile": 0.836}
{"Gene": "FLNA (filamin A)", "mean correlation with KSR1 profile": 0.591}
{"Gene": "IL13RA2 (interleukin 13 receptor subunit alpha 2)", "mean correlation with KSR1 profile": 0.258}
{"Gene": "CFLAR (CASP8 and FADD like apoptosis regulator)", "mean correlation with KSR1 profile": -0.253}

An excerpt taken from the entries so far:
{"Gene": "CD40 (CD40 molecule)", "mean correlation with KSR1 profile": 0.738}
{"Gene": "TOR1AIP1 (torsin 1A interacting protein 1)", "mean correlation with KSR1 profile": 0.703}
{"Gene": "CDCA7 (cell division cycle associated 7)", "mean correlation with KSR1 profile": 0.313}
{"Gene": "LTBP4 (latent transforming growth factor beta binding protein 4)", "mean correlation with KSR1 profile": 0.53}
